Measured values reported in patent US20070083037A1, “Monkey npy y4 receptor and method of evaluating compound” (priority 2003, published 2007).
At least one structure is not confirmed: it was looked up by name or label, or the drawing left a doubt.

Assays:
[1] = test system: rhesus monkey NPY Y4 receptor (SEQ ID NO: 1); test: Receptor binding assay using rhesus monkey Y4 receptor-expressing COS-7 cell membrane fractions (SEQ ID NO: 1), inhibition of [125I]human PP binding; settings: expression vector SEQ ID NO: 1; COS-7 membrane fraction; 59 pM [125I]human PP; read-out: IC50 against specific [125I]human PP binding
Experimental: (§1) COS-7 cells were transfected with a pEF1/[…]B plasmid vector containing the nucleotide sequence of SEQ ID NO: 1 or 3, using LipofectAmine Plus (Invitrogen). After 48 hours, the cells were recovered, and disrupted in 10 mM MOPS buffer (pH 7.4) containing 20% sucrose, 154 mM NaCl, 10 mM KCl and 0.8 mM CaCl2, using a Polytron homogenizer (Kinematica) while cooling on ice. The obtained homogenate was centrifuged at 1,000×g, 4° C. for 15 minutes, the supernatant was centrifuged at 90,000×g for 50 minutes, and the precipitate was collected. It was then suspended in 5 mM HEPES/Tris buffer (pH 7.4) and then centrifuged again at 90,000×g for 50 minutes, after which the obtained precipitate was collected as the membrane sample. […] After rinsing with 5 mM Tris buffer (pH 7.4) containing 0.3% bovine serum albumin and drying, MicroScint0 (Perkin-Elmer) was added, and a TopCount HTS (Packard) was used to measure the residual radioactivity on the filter.

[2] = test system: rhesus monkey NPY Y4 receptor (SEQ ID NO: 3); test: Receptor binding assay using rhesus monkey Y4 receptor-expressing COS-7 cell membrane fractions (SEQ ID NO: 3), inhibition of [125I]human PP binding; settings: expression vector SEQ ID NO: 3; COS-7 membrane fraction; 59 pM [125I]human PP; read-out: IC50 against specific [125I]human PP binding
Experimental: as §1

[3] = test system: rhesus monkey NPY Y4 receptor (SEQ ID NO: 1); test: Intracellular calcium ion concentration increase (FLIPR) in CHO-K1 cells coexpressing rhesus monkey Y4 receptor (SEQ ID NO: 1) and Gα15; format: cell-based; settings: CHO-K1 Gα15 cells transfected with SEQ ID NO: 1; Fluo-4, FLIPR; read-out: EC50, increase in fluorescent intensity (intracellular calcium ion concentration)
[4] = test system: rhesus monkey NPY Y4 receptor (SEQ ID NO: 3); test: Intracellular calcium ion concentration increase (FLIPR) in CHO-K1 cells coexpressing rhesus monkey Y4 receptor (SEQ ID NO: 3) and Gα15; format: cell-based; settings: CHO-K1 Gα15 cells transfected with SEQ ID NO: 3; Fluo-4, FLIPR; read-out: EC50, increase in fluorescent intensity (intracellular calcium ion concentration)

Q: With `CC[C@H](C)[C@H](NC(=O)[C@H](Cc1ccc(O)cc1)NC(=O)[C@H](CCCNC(=N)N)NC(=O)[C@H](CCCNC(=N)N)NC(=O)[C@H](CC(C)C)NC(=O)[C@H](CC(=O)O)NC(=O)[C@H](C)NC(=O)[C@H](C)NC(=O)[C@H](Cc1ccc(O)cc1)NC(=O)[C@H](CCC(N)=O)NC(=O)[C@H](C)NC(=O)[C@H](CCSC)NC(=O)[C@H](CCC(N)=O)NC(=O)[C@H](CCC(=O)O)NC(=O)[C@@H]1CCCN1C(=O)[C@@H](NC(=O)[C@H](C)NC(=O)[C@H](CC(N)=O)NC(=O)[C@H](CC(=O)O)NC(=O)CNC(=O)[C@@H]1CCCN1C(=O)[C@H](Cc1ccc(O)cc1)NC(=O)[C@@H](NC(=O)[C@@H]1CCCN1C(=O)[C@H](CCC(=O)O)NC(=O)[C@H](CC(C)C)NC(=O)[C@@H]1CCCN1C(=O)[C@H](C)N)C(C)C)[C@@H](C)O)C(=O)N[C@@H](CC(N)=O)C(=O)N[C@@H](CCSC)C(=O)N[C@@H](CC(C)C)C(=O)N[C@H](C(=O)N[C@@H](CCCNC(=N)N)C(=O)N1CCC[C@H]1C(=O)N[C@@H](CCCNC(=N)N)C(=O)N[C@@H](Cc1ccc(O)cc1)C(N)=O)[C@@H](C)O` [Human PP, Pancreatic Polypeptide] as the compound, how does the IC50 [1] read?
A: The IC50 was 0.24 nM.

Q: And the IC50 [2]?
A: Its IC50 is 0.17 nM.

Q: And the EC50 [3]?
A: The EC50 was 1.8 nM.

Q: What about the EC50 [4] of the same compound?
A: The EC50 was 4.8 nM.
